From the supplement of paper PMC12872613
Counter-ions that a name gives are not always drawn. The list shows a part of the results. Rule as the data show it: active = 0.7 or more and inactive = the rest. Most values come without repeats; read them as rough.

These compounds were tested on MiaPaCa-2 CLSA-25 (assay: cell death relative to DMSO vehicle (fraction); higher = more cytotoxic). Conditions: 5 µM; treatment time 48 h; medium cystine 25 µM.

Compound	cell death
C[C@@H]1C[C@H]2[C@@H]3CCC4=CC(=O)C=C[C@]4(C)[C@@]3(F)[C@@H](O)C[C@]2(C)[C@@]1(O)C(=O)CO [Dexamethasone]	inactive: 0.0965
OC[C@H]1O[C@@H](Oc2cc(O)cc(/C=C/c3ccc(O)cc3)c2)[C@H](O)[C@@H](O)[C@@H]1O [Polydatin]	inactive: 0.198
N[C@@H](CCNCc1ccc(Cl)cc1)C(=O)N1CCCCC1	inactive: 0.129
O=C(O)C(=O)c1cn(Cc2ccccc2)c2ccc(-c3ccc(OC(F)(F)F)cc3)cc12 [Tiplaxtinin]	inactive: 0.2
CC1=C[C@]2(O)O[C@@]3(CC2=C(C)C)[C@@H](C)CC[C@@H]13 [Curcumenol]	inactive: 0.181
CN1CCc2nc(C(=O)N[C@@H]3C[C@@H](C(=O)N(C)C)CC[C@@H]3NC(=O)C(=O)Nc3ccc(Cl)cn3)sc2C1 [Edoxaban Tosylate Monohydrate]	inactive: 0.143
C[C@H](CCC(=O)O)[C@H]1CC[C@H]2[C@@H]3CC[C@@H]4C[C@H](O)CC[C@]4(C)[C@H]3C[C@H](O)[C@]12C [Deoxycholic acid]	inactive: 0.0998
Cc1c(NC(=O)c2cc(C(N)=O)nc3cc(F)ccc23)c(C(F)(F)F)nn1Cc1ccc(C#N)cc1	active: 0.79
COC(=O)c1ccc2c(c1)[nH]c1ncnc(NCCCN3CCCCC3)c12	inactive: 0.101
CC(C)(NS(=O)(=O)c1ccc2c(Cl)cnc(N=C(N)N)c2c1)C(=O)O	inactive: 0.495
Cc1cnc(-c2cnc(NCCNc3ccc(C#N)cn3)nc2-c2ccc(Cl)cc2Cl)[nH]1	inactive: 0.171
